Data published in publication PMC10880924, “Small molecule WDR5 inhibitors down-regulate lncRNA expression” (RSC Medicinal Chemistry, 2024).
Entries after “also recorded” stand apart in the source; their conditions may differ. Read-outs that look alike come from different tables or passages of the source.

Experiments:
[1] = system: HOTTIP expression in MDA-MB-231 cells
[2] = system: FOXD3-AS1 expression in MDA-MB-231 cells
[3] = MDA-MB-231, 10 μM, one-day treatment
[4] = MDA-MB-231, 10 μM, three-day treatment
[5] = MDA-MB-231, 10 μM, one/three days

| SMILES | effect on HOTTIP expression [1, 3] | effect on HOTTIP expression [1, 4] | effect on FOXD3-AS1 expression [2, 5] | effect on FOXD3-AS1 expression ([2]; MDA-MB-231, 1/5/10 μM, three days) | effect on HOTTIP expression ([1]; MDA-MB-231, 1 μM, three days) |
| --- | --- | --- | --- | --- | --- |
| CNC(=O)c1cc(C2(C#N)CCC2)cc(NS(=O)(=O)c2cc(Br)cc(Cl)c2O)c1O [7k, 3-((5-Bromo-3-chloro-2-hydroxyphenyl)sulfonamido)-5-(1cyanocyclobutyl)-2-hydroxy-N-methylbenzamide] | no effect could be observed | down-regulation of HOTTIP after three days of treatment; also recorded: able to reduce HOTTIP expression but longer incubation times of three days were required to observe the effect; also recorded: able to downregulate HOTTIP | did not provide significant changes; also recorded: did not influence FOXD3-AS1 expression; also recorded: could not | not sensitive to the treatment of molecule 7k in the concentration range used | – |
| CN1CCN(c2ccc(-c3cccc(CN4CCOCC4)c3)cc2NC(=O)c2c[nH]c(=O)cc2C(F)(F)F)CC1 [OICR-9429] | small but significant effect | able to reduce HOTTIP expression after three days of treatment | could downregulate FOXD3-AS1 | – | not enough to reduce the expression of HOTTIP significantly |
